# Values from PubChem BioAssay AID1508597 (Cure First, 2020).
# Test: 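Survival screen with siRNA in ovarian cancer cells derived from patients, with or without rucaparib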 (primary screen)
# System: human ovarian carcinoma lines grown from tumours: OCI-P5x (papillary serous) and OCI-C5x (clear cell)
# Reagent: siRNA pool against human genes, 1.25 pmol siRNA per well
# Duration: 72 h or 96 h, depending on the cell culture
# Treatment: rucaparib 20 µM (about IC30) or vehicle, present until read-out
# Rucaparib or vehicle: Rucaparib
# Cell line: OCI-P5x (serous)
# Detection: 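ATP luminescence measured at 72 or 96 h according to the culture, then normalised and expressed as percent viability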
# Reading the numbers: viability, normalised: higher = more viable cells remaining
# Rule for the call: 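a well counts as a hit if its normalised viability is under 80 percent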
# Calls: active = viability under 80%; inactive = viability 80% or more
# Shown is an unselected part of the about 2,100 reagents, under one of the conditions tested. 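Calls flag viability under 80% in either arm, not effects specific to rucaparib; the reference for percent is not stated.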 No sequences are given here. Not given: the 100% reference.
Gene,PubChem SID,technical replicate,"viability, normalised (%)",Outcome
H4C2 (H4 clustered histone 2),SID405526863,1,61,active
H4C2 (H4 clustered histone 2),SID405526863,2,72.8,active
H4C2 (H4 clustered histone 2),SID405526863,3,56.9,active
PLCD4 (phospholipase C delta 4),SID405526711,1,52.7,active
PLCD4 (phospholipase C delta 4),SID405526711,2,49.9,active
PLCD4 (phospholipase C delta 4),SID405526711,3,51,active
CLDN7 (claudin 7),SID405528140,1,69.3,active
CLDN7 (claudin 7),SID405528140,2,62.4,active
CLDN7 (claudin 7),SID405528140,3,60.2,active
"ERCC5 (ERCC excision repair 5, endonuclease)",SID405528272,1,105,inactive
"ERCC5 (ERCC excision repair 5, endonuclease)",SID405528272,2,97.7,inactive
"ERCC5 (ERCC excision repair 5, endonuclease)",SID405528272,3,77.4,active
CHKA (choline kinase alpha),SID405528503,1,73.1,active
CHKA (choline kinase alpha),SID405528503,2,72.2,active
CHKA (choline kinase alpha),SID405528503,3,72.6,active
RAD51 (RAD51 recombinase),SID405528456,1,90.1,inactive
RAD51 (RAD51 recombinase),SID405528456,2,84,inactive
RAD51 (RAD51 recombinase),SID405528456,3,88.8,inactive
CSRNP2 (cysteine and serine rich nuclear protein 2),SID405526402,1,63.1,active
CSRNP2 (cysteine and serine rich nuclear protein 2),SID405526402,2,86.9,inactive
CSRNP2 (cysteine and serine rich nuclear protein 2),SID405526402,3,88.9,inactive
PAK5 (p21 (RAC1) activated kinase 5),SID405528533,1,71.1,active
PAK5 (p21 (RAC1) activated kinase 5),SID405528533,2,77.4,active
PAK5 (p21 (RAC1) activated kinase 5),SID405528533,3,71.6,active
CDH2 (cadherin 2),SID405528085,1,78.1,active
CDH2 (cadherin 2),SID405528085,2,82.7,inactive
CDH2 (cadherin 2),SID405528085,3,100,inactive
TJP1 (tight junction protein 1),SID405527924,1,74.1,active
TJP1 (tight junction protein 1),SID405527924,2,71.7,active
TJP1 (tight junction protein 1),SID405527924,3,56.8,active
MORC2 (MORC family CW-type zinc finger 2),SID405527022,1,38.1,active
MORC2 (MORC family CW-type zinc finger 2),SID405527022,2,42.6,active
MORC2 (MORC family CW-type zinc finger 2),SID405527022,3,34.7,active
ZCWPW1 (zinc finger CW-type and PWWP domain containing 1),SID405526643,1,54.4,active
ZCWPW1 (zinc finger CW-type and PWWP domain containing 1),SID405526643,2,54.7,active
ZCWPW1 (zinc finger CW-type and PWWP domain containing 1),SID405526643,3,67,active
TJP2 (tight junction protein 2),SID405527672,1,126,inactive
TJP2 (tight junction protein 2),SID405527672,2,100,inactive
TJP2 (tight junction protein 2),SID405527672,3,90.6,inactive
